This is one part of the list.
Columns and labels:
Experiment in all cases: log2 fold change, soluble protein after heating vs DMSO (PISA); higher = thermal stabilisation; K562 lysate, 10 uM; active = over 0.2 and 3.5 SD of the protein, either way, in both replicates (recomputed)
erlotinib = compound: C#Cc1cccc(Nc2ncnc3cc(OCCOC)c(OCCOC)cc23)c1 [erlotinib]
Procedure, shortened: (§1)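 A 30 min treatment with 10 μM compound was applied to crude K562 extract at 1 mg/mL protein in PBS pH 7.4 with 1 mM MgCl2. Heating for 3 min spanned 48°C-58°C, after which aliquots were pooled, adjusted to 0.5% NP-40 at 4°C and spun at 21,000xg for 90 min. TMTpro 16plex LC-MS/MS of the supernatant, with channel sums equalised, gave values recorded as log-two fold change in thermal stability against solvent controls, from duplicates.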

Protein sequences, listed by entry. Tags and fused reporters are not part of them. Lines headed by an entry give the natural chain unless they say otherwise; changes in a name come on top.
UniProt Q96GS4: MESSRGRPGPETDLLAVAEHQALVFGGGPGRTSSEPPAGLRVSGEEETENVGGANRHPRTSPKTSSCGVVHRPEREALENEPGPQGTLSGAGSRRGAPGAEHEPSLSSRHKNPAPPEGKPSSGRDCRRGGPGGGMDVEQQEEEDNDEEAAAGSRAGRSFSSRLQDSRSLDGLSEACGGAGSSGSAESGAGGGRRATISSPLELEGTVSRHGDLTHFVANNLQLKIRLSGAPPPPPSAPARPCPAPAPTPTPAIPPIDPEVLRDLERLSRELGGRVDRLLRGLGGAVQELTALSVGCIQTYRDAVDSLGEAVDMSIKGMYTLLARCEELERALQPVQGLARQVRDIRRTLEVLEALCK
UniProt Q9UQB8: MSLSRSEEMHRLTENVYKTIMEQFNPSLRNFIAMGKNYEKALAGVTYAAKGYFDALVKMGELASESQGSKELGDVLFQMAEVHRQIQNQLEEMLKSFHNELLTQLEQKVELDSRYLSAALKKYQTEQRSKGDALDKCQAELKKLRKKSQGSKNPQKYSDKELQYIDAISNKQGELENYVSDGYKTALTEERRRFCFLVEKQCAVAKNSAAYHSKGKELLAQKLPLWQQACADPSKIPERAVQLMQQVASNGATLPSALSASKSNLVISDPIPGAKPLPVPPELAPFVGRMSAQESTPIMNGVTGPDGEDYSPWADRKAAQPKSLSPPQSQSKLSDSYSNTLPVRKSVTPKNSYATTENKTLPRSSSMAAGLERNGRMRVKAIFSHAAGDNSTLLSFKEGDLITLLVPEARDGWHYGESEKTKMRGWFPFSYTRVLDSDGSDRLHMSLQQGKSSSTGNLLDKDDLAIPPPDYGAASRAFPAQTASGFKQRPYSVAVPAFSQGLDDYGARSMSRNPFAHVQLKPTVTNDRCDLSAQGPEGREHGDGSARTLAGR
UniProt O15392, whole entry, looked up: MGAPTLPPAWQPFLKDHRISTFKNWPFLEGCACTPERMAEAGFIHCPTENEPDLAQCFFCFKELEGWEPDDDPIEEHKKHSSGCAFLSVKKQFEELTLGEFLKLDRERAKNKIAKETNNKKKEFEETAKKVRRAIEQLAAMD
UniProt O15155: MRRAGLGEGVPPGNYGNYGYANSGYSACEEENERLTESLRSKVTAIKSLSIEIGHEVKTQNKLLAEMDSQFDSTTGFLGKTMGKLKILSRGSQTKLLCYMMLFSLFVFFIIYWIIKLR
UniProt Q99728: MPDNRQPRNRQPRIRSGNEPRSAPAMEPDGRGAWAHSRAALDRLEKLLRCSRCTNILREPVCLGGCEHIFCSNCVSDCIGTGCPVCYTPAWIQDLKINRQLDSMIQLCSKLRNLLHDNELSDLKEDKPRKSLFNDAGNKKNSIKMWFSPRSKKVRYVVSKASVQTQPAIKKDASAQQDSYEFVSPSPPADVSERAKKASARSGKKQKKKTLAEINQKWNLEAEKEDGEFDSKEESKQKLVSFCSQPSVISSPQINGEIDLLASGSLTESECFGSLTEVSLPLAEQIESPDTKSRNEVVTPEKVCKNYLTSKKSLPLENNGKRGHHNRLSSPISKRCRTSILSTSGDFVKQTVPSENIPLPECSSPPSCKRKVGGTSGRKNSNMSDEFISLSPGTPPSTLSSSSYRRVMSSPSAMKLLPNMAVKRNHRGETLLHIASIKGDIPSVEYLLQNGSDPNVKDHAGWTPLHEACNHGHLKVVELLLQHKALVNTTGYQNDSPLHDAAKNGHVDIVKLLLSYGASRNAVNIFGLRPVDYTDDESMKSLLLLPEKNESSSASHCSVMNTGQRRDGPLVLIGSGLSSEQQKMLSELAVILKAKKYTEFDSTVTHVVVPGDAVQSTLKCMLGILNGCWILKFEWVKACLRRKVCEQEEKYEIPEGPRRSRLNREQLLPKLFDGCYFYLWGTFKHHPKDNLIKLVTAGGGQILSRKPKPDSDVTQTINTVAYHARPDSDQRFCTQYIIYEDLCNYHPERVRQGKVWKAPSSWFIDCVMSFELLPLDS
UniProt Q9NSY1, whole entry, looked up: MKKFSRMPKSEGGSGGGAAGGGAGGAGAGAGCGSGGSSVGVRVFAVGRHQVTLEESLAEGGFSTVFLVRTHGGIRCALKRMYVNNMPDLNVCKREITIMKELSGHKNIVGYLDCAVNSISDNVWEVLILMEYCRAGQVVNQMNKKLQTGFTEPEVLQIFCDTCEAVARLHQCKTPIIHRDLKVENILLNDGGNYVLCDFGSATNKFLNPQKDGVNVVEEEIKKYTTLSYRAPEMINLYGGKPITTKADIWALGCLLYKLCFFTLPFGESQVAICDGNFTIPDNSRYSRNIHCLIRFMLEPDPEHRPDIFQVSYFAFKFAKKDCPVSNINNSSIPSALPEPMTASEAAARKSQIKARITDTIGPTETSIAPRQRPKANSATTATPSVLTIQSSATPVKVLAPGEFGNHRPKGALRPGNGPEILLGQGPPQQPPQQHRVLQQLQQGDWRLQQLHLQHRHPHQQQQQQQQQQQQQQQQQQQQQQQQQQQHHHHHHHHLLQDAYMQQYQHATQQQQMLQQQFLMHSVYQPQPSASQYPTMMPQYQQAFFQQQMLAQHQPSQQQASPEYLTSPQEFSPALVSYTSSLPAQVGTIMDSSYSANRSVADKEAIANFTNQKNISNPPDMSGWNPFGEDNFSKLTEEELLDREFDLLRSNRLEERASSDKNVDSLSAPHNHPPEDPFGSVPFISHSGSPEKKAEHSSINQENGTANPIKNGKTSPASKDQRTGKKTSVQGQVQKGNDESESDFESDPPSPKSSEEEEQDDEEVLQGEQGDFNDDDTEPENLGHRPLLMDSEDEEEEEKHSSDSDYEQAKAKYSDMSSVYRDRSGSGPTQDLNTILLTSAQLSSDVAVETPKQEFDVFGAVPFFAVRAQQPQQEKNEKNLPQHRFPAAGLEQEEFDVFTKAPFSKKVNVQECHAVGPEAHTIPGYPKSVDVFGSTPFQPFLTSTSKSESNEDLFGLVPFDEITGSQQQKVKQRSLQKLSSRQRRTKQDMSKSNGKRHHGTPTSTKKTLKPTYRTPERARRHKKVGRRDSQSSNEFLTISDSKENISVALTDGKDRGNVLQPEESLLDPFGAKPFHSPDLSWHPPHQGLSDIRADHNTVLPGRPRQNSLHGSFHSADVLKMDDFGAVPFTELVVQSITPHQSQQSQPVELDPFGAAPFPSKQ
UniProt Q92843: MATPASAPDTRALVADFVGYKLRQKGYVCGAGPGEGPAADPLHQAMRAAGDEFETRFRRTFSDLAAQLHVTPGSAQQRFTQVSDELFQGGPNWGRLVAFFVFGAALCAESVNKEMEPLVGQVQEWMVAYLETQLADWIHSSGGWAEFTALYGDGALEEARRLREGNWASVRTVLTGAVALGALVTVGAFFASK
UniProt Q96KE9: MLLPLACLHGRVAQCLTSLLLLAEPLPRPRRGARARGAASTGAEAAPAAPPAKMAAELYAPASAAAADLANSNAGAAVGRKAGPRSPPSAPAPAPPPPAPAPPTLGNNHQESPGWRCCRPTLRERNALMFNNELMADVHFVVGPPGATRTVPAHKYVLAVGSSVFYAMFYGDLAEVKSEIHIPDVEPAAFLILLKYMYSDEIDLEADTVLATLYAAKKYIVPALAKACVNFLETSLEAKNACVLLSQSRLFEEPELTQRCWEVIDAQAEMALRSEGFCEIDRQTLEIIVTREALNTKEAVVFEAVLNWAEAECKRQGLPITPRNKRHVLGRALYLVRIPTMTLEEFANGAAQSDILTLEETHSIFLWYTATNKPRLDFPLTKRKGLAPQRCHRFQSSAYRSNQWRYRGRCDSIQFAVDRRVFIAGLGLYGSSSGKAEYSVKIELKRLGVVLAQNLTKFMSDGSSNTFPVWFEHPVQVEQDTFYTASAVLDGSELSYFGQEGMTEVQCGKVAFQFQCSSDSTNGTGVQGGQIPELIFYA
UniProt Q7Z569: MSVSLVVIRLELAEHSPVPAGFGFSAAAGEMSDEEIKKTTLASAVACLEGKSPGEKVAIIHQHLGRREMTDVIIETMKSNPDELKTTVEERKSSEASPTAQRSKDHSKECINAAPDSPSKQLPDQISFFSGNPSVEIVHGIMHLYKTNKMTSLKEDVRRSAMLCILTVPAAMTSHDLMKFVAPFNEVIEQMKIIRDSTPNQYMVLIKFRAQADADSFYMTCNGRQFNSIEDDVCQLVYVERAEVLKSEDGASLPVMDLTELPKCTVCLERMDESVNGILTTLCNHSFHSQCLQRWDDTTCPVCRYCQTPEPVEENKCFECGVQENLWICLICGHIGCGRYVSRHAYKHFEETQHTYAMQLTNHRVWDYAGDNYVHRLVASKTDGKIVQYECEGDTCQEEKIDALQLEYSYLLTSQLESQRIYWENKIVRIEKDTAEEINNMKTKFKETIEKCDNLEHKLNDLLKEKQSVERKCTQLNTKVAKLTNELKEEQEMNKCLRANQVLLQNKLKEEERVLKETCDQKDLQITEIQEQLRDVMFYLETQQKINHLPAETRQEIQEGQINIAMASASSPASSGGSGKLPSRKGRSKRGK
UniProt Q8TD16, whole entry, looked up: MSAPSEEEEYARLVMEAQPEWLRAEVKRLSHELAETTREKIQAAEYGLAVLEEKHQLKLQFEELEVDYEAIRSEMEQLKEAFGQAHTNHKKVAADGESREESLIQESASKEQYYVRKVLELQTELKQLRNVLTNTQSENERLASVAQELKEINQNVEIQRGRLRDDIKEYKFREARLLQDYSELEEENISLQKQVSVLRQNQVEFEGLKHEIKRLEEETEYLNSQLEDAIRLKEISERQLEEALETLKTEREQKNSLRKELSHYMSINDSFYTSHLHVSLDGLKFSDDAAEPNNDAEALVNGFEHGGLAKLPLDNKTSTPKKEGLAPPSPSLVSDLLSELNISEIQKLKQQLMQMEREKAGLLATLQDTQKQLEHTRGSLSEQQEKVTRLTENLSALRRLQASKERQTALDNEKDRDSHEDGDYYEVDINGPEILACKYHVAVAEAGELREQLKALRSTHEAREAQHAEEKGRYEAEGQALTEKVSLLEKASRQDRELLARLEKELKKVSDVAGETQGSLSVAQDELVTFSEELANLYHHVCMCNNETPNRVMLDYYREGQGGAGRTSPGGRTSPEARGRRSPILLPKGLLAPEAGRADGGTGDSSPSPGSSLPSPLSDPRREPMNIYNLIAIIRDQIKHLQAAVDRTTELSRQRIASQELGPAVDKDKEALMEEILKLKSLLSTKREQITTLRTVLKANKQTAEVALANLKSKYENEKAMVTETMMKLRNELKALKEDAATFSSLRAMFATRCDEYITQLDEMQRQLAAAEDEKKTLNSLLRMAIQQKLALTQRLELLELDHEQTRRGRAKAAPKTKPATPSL
UniProt Q9Y276: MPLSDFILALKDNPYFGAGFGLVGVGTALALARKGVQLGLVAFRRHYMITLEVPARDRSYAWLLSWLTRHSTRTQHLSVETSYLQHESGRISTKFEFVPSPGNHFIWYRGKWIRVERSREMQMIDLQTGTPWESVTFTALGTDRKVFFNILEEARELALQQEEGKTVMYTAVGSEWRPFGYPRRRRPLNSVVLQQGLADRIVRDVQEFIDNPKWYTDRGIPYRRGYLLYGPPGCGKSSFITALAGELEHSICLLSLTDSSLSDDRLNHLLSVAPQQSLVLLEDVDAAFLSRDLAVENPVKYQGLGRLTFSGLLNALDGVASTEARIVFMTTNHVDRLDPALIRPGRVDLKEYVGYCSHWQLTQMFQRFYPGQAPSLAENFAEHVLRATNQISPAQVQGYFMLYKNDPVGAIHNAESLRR
UniProt Q99933: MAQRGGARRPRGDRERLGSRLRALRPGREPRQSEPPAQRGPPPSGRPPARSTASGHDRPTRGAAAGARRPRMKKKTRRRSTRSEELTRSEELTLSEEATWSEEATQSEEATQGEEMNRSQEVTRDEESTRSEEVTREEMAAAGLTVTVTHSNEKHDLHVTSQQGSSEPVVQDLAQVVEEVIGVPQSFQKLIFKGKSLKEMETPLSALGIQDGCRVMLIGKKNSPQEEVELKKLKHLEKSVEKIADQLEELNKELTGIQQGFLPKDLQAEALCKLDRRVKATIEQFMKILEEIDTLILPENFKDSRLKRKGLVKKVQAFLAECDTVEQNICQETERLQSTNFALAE
UniProt Q9NXR7, whole entry, looked up: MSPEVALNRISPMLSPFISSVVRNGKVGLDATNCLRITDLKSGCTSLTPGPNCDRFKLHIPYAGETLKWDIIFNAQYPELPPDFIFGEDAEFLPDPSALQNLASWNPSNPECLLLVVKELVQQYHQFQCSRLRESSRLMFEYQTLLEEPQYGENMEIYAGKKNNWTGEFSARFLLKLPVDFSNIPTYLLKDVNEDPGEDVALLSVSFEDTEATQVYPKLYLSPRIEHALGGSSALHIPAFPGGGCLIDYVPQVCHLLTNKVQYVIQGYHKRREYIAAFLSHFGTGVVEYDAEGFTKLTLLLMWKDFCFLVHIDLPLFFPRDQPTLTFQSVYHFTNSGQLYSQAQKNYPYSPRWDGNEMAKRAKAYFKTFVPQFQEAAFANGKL

[1] = compound: C/C(=N\NC(=O)C1=CC(=CC=C1)S(=O)(=O)N2CCOCC2)/C3=C(C=CC(=C3)Cl)O
Procedure, shortened: as §1

[2] = compound: C1=CC(=CC=C1C2=NC3=C(N2)C=C(C=C3)C(=O)N)OC4=CC=C(C=C4)Cl
Procedure, shortened: as §1

[3] = compound: C1=CC2=C(C=CC(=C2)/C=C\3/C(=O)NC(=NCC4=CC=CS4)S3)N=C1
Procedure, shortened: as §1

[4] = compound: C1=CC2=NC=CN=C2C=C1/C=C/3\C(=O)NC(=O)S3
Procedure, shortened: as §1

[5] = compound: C1=CC=C(C=C1)C2=NC(=C(N2)C3=CC=NC=C3)C4=CC(=C(C=C4)Cl)O
Procedure, shortened: as §1

[6] = compound: C1=CC=C2C(=C1)C3=NNC4=CC=CC(=C43)C2=O
Procedure, shortened: as §1

[7] = compound: C1CCN(C1)C(=O)NC2=CC=CC(=C2)NC3=NC=C(C(=N3)NCCC4=CN=CN4)Br
Procedure, shortened: as §1

[8] = compound: C1CN(CCC1(CC2=CC=C(C=C2)Cl)N)C3=NC=NC4=C3C=CN4
Procedure, shortened: as §1

IRAK-1-4 Inhibitor I = compound: C1COCCN1CCN2C3=CC=CC=C3N=C2NC(=O)C4=CC(=CC=C4)[N+](=O)[O-] [IRAK-1-4 Inhibitor I]
Procedure, shortened: as §1

ibrutinib = compound: C=CC(=O)N1CCC[C@@H](n2nc(-c3ccc(Oc4ccccc4)cc3)c3c(N)ncnc32)C1 [ibrutinib]
Procedure, shortened: as §1

[9] = compound: CC(=O)c1cnc2ccc(-c3cc(Cl)c(O)c(Cl)c3)nc2c1N[C@H]1CC[C@H](CN(C)C)CC1
Procedure, shortened: as §1

ralimetinib = compound: CC(C)(C)Cn1c(N)nc2ccc(-c3[nH]c(C(C)(C)C)nc3-c3ccc(F)cc3)nc21 [ralimetinib]
Procedure, shortened: as §1

[10] = compound: CC(C)(O)CC(=O)NCCn1ccc2ncnc(Nc3ccc(Oc4cccc(C(F)(F)F)c4)c(Cl)c3)c21
Procedure, shortened: as §1

[11] = compound: CC(C)C1=C2N=C(C=C(N2N=C1)NCC3=CC=CC=C3)NCCCCCCN
Procedure, shortened: as §1

[12] = compound: CC1=C(C(CC(=O)N1)C2=CC=C(C=C2)C(F)(F)F)C(=O)NC3=C(C=C4C(=C3)C=NN4)F
Procedure, shortened: as §1

[13] = compound: CC1=C(C2=C(C=C1)C(=O)C3=CC=CC=C3N2CCCN)C
Procedure, shortened: as §1

[14] = compound: CC1=C(C=C(C=C1)NC(=O)C2=CC(=CC=C2)C(C)(C)C#N)NC3=CC4=C(C=C3)N=CN(C4=O)C
Procedure, shortened: as §1

[15] = compound: CC1=C(C=C(C=C1)NC(=O)C2=CC(=CC=C2)N(C)C)NC(=O)C3=CC=C(C=C3)O
Procedure, shortened: as §1

[16] = compound: CC1=CC=C(C=C1)SC2=C3C=C(SC3=CN=C2)C(=O)N
Procedure, shortened: as §1

Measured: log2 fold change

BORCS6 (UniProt Q96GS4)
inactive: erlotinib -0.001 | [1] -0.027 | [2] 0.029 | [3] -0.061 | [4] -0.005 | [5] 0.036 | [6] 0.022 | [7] -0.01 | [8] -0.003 | IRAK-1-4 Inhibitor I 0.001 | ibrutinib -0.02 | [9] 0.008 | ralimetinib -0.005 | [10] -0.021 | [11] 0 | [12] 0.029 | [13] 0.06 | [14] 0.054 | [15] 0.013 | [16] 0.002

BAIAP2 (UniProt Q9UQB8)
inactive: erlotinib 0 | [1] 0.083 | [2] 0.044 | [3] -0.01 | [4] -0.027 | [5] 0.011 | [6] 0 | [7] -0.03 | [8] -0.016 | IRAK-1-4 Inhibitor I 0 | ibrutinib 0.031 | [9] 0.005 | ralimetinib -0.054 | [10] -0.004 | [11] -0.019 | [12] -0.032 | [13] 0.025 | [14] 0.035 | [15] -0.03 | [16] -0.009

BIRC5 (UniProt O15392)
inactive: erlotinib 0.002 | [1] -0.008 | [2] 0.119 | [3] 0.096 | [4] -0.024 | [5] 0.153 | [6] 0.063 | [7] 0.039 | [8] 0.067 | IRAK-1-4 Inhibitor I 0.061 | ibrutinib 0.105 | [9] -0.041 | ralimetinib 0 | [10] -0.013 | [11] -0.066 | [12] -0.05 | [13] -0.1 | [14] -0.054 | [15] -0.008 | [16] 0.054

Reprinted at random: 2 entries already listed, in no set order.
BORCS6 (UniProt Q96GS4)
inactive: erlotinib -0.001 | [1] -0.027 | [2] 0.029 | [3] -0.061 | [4] -0.005 | [5] 0.036 | [6] 0.022 | [7] -0.01 | [8] -0.003 | IRAK-1-4 Inhibitor I 0.001 | ibrutinib -0.02 | [9] 0.008 | ralimetinib -0.005 | [10] -0.021 | [11] 0 | [12] 0.029 | [13] 0.06 | [14] 0.054 | [15] 0.013 | [16] 0.002

BIRC5 (UniProt O15392)
inactive: erlotinib 0.002 | [1] -0.008 | [2] 0.119 | [3] 0.096 | [4] -0.024 | [5] 0.153 | [6] 0.063 | [7] 0.039 | [8] 0.067 | IRAK-1-4 Inhibitor I 0.061 | ibrutinib 0.105 | [9] -0.041 | ralimetinib 0 | [10] -0.013 | [11] -0.066 | [12] -0.05 | [13] -0.1 | [14] -0.054 | [15] -0.008 | [16] 0.054

The results go on.

BET1 (UniProt O15155)
inactive: erlotinib 0.025 | [1] -0.092 | [2] -0.059 | [3] 0.033 | [4] 0.08 | [5] 0.033 | [6] -0.015 | [7] 0.039 | [8] 0.018 | IRAK-1-4 Inhibitor I 0.006 | ibrutinib -0.03 | [9] 0.041 | ralimetinib -0.085 | [10] 0.01 | [11] 0.035 | [12] 0.033 | [13] -0.01 | [14] -0.019 | [15] 0.001 | [16] -0.001

BARD1 (UniProt Q99728)
inactive: erlotinib 0.022 | [1] -0.178 | [2] 0.011 | [3] -0.213 | [4] 0.206 | [5] 0.077 | [6] 0.049 | [7] 0.071 | [8] 0.07 | IRAK-1-4 Inhibitor I 0.061 | ibrutinib 0.006 | [9] 0.129 | ralimetinib -0.021 | [10] 0.033 | [11] -0.067 | [12] -0.095 | [13] 0.008 | [14] 0.096 | [15] -0.002 | [16] 0.01

BMP2K (UniProt Q9NSY1)
inactive: erlotinib 0.179 | [1] -0.105 | [2] -0.07 | [3] 0.581 | [4] 0.241 | [5] -0.002 | [6] 0.672 | [7] 0.477 | [8] -0.062 | IRAK-1-4 Inhibitor I 0.61 | ibrutinib -0.005 | [9] 0.675 | ralimetinib -0.003 | [10] -0.055 | [11] -0.005 | [12] -0.01 | [13] -0.033 | [14] -0.021 | [15] 0.004 | [16] 0.082

BCL2L2 isoform 2 (UniProt Q92843)
inactive: erlotinib 0.009 | [1] -0.051 | [2] -0.046 | [3] 0.025 | [4] -0.029 | [5] 0.019 | [6] 0.016 | [7] 0.039 | [8] 0.012 | IRAK-1-4 Inhibitor I 0.009 | ibrutinib -0.005 | [9] -0.023 | ralimetinib -0.017 | [10] -0.004 | [11] -0.013 | [12] -0.039 | [13] -0.025 | [14] 0.015 | [15] 0.017 | [16] 0.01

BTBD6 (UniProt Q96KE9)
inactive: erlotinib 0.135 | [1] 0.08 | [2] 0.14 | [3] -0.09 | [4] -0.077 | [5] 0.114 | [6] -0.168 | [7] -0.042 | [8] 0.168 | IRAK-1-4 Inhibitor I 0.208 | ibrutinib -0.011 | [9] -0.208 | ralimetinib -0.143 | [10] -0.292 | [11] 0.035 | [12] -0.132 | [13] -0.149 | [14] 0.416 | [15] 0.03 | [16] -0.173

BRAP (UniProt Q7Z569)
inactive: erlotinib 0.004 | [1] -0.005 | [2] 0.013 | [3] -0.008 | [4] 0 | [5] 0.01 | [6] -0.032 | [7] -0.035 | [8] 0.027 | IRAK-1-4 Inhibitor I 0.005 | ibrutinib 0.003 | [9] -0.02 | ralimetinib 0.022 | [10] -0.006 | [11] 0.034 | [12] 0.018 | [13] -0.001 | [14] 0.018 | [15] 0.02 | [16] 0.003

BICD2 isoform 2 (UniProt Q8TD16)
inactive: erlotinib -0.021 | [1] 0.09 | [2] 0.004 | [3] -0.014 | [4] -0.004 | [5] -0.013 | [6] -0.033 | [7] 0.017 | [8] -0.002 | IRAK-1-4 Inhibitor I -0.021 | ibrutinib 0.066 | [9] -0.024 | ralimetinib -0.017 | [10] -0.031 | [11] -0.017 | [12] -0.022 | [13] -0.01 | [14] 0.011 | [15] 0.015 | [16] -0.035

BCS1L (UniProt Q9Y276)
inactive: erlotinib 0.029 | [1] 0.186 | [2] -0.137 | [3] 0.035 | [4] 0.036 | [5] -0.161 | [6] -0.093 | [7] -0.06 | [8] -0.034 | IRAK-1-4 Inhibitor I 0.044 | ibrutinib 0.032 | [9] -0.013 | ralimetinib 0.015 | [10] -0.05 | [11] -0.056 | [12] 0.022 | [13] 0.019 | [14] -0.014 | [15] -0.096 | [16] -0.018

BAG1 (UniProt Q99933)
inactive: erlotinib -0.031 | [1] 0.009 | [2] 0.019 | [3] -0.017 | [4] -0.024 | [5] 0.006 | [6] 0.11 | [7] 0.019 | [8] 0.011 | IRAK-1-4 Inhibitor I 0.017 | ibrutinib -0.004 | [9] 0 | ralimetinib 0.012 | [10] -0.03 | [11] -0.019 | [12] -0.022 | [13] 0.049 | [14] 0.023 | [15] 0.005 | [16] -0.024

BRD4 (UniProt O60885)
inactive: erlotinib -0.001 | [1] -0.011 | [2] 0.059 | [3] 0.013 | [4] -0.007 | [5] 0.05 | [6] -0.061 | [7] -0.016 | [8] 0.032 | IRAK-1-4 Inhibitor I 0.028 | ibrutinib -0.011 | [9] -0.017 | ralimetinib 0.023 | [10] -0.042 | [11] -0.016 | [12] -0.006 | [13] 0.001 | [14] 0.061 | [15] 0.006 | [16] -0.021

BOP1 (UniProt Q14137)
inactive: erlotinib 0.011 | [1] -0.027 | [2] 0.022 | [3] -0.001 | [4] -0.005 | [5] -0.002 | [6] -0.04 | [7] -0.002 | [8] 0.006 | IRAK-1-4 Inhibitor I -0.031 | ibrutinib 0.027 | [9] -0.032 | ralimetinib 0.008 | [10] -0.008 | [11] -0.011 | [12] -0.012 | [13] 0.003 | [14] 0.011 | [15] 0.034 | [16] 0.001

BABAM2 (UniProt Q9NXR7)
inactive: erlotinib 0.011 | [1] -0.034 | [2] 0.007 | [3] -0.007 | [4] -0.004 | [5] 0.018 | [6] -0.047 | [7] -0.021 | [8] 0.01 | IRAK-1-4 Inhibitor I 0.011 | ibrutinib 0.017 | [9] -0.009 | ralimetinib 0.005 | [10] -0.011 | [11] -0.036 | [12] -0.001 | [13] 0.013 | [14] 0.003 | [15] -0.011 | [16] -0.003

BPGM (UniProt P07738)
inactive: erlotinib -0.03 | [1] 0.016 | [2] 0.073 | [3] 0.002 | [4] -0.022 | [5] -0.061 | [6] -0.066 | [7] 0.071 | [8] -0.041 | IRAK-1-4 Inhibitor I 0 | ibrutinib 0.013 | [9] 0.093 | ralimetinib -0.01 | [10] -0.088 | [11] -0.016 | [12] -0.005 | [13] 0.011 | [14] 0.005 | [15] -0.009 | [16] 0.005

Source: the supplement of paper PMC10849652
